For at least one entry, the source does not settle the construct or the ends of the probe. The comparison behind a weaker result is the experiment's own reference, which may not be listed here.
Target: DgoR (EcoDgoR) WT (Escherichia coli) (UniProt P31460)
Assay: EMSA
Settings: 0.5 mM D-galactonate, EMSA: 25 mM Tris-HCl pH 8.0, 50 mM KCl, 2.5 mM MgCl2, 5% glycerol, 1 mM DTT, 100 ug/mL salmon sperm DNA, 100 ng Cy5 probe in 20 ul, 25 C 20 min, native PAGE at 4 C, recombinant protein, residues 1-229, protein details: His (pET28a), label: Cy5, probe letters rebuilt from the primers and the genome

By UniProt entry, the sequences of proteins in these tests, tags left out. Where a name states a change or a piece, a line headed by the entry shows the natural chain unless it says otherwise.
UniProt P31460: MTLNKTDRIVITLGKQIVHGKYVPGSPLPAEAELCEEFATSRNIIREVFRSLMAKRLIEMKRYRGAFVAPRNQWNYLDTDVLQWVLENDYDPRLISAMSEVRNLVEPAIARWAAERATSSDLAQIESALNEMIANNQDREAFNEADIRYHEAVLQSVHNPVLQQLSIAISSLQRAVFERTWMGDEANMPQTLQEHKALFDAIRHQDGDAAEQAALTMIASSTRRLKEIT

TGTAAAACGACGGCCAGTGCATTGTTCTTTTTGTGATCTAAATTGTAGTACAACAATATAAGTTTGTACTACATTACACGCACGGCAAACGCGAACGTCATCACGCTGGTACTACAAAGTTGCCGCGTTATGCATCGATCGGGGTAAAGTAGAGAAGAACATACAGAGCACAAGGACTCTCCATGACTCTCAATAAAACCGATCGCATTGTC (double strand) [dgo cis-acting element (promoter region)]
binds more weakly: binding result | binding result (EDTA-treated protein, Ca2+) | binding result (EDTA-treated protein, Mg2+) | binding result (EDTA-treated protein, Zn2+)

Reference: PMC7674646, “Structural and Functional Analyses of the Transcription Repressor DgoR From Escherichia coli Reveal a Divalent Metal-Containing D-Galactonate Binding Pocket” (Frontiers in Microbiology, 2020)
